# According to US11642320B2, “Nanoparticulate prodrugs” (priority 2016, dated 2023):
# System: RAW 264.7 cell line
# Test: In vitro cell viability (MTT)
# Format: cell-based
# Protocol: During inflammatory diseases development, immune cells such as macrophages play a critical role within inflammatory pathways, cytokines production and diapedesis. The influence of the nanoparticles in the cell viability was studied in the RAW 264.7 cell line using a colorimetric method. Cells were seeded in 96-well plates at a density of 8×10^3 cells/well in 100 μL of culture medium, and they were left overnight in the incubator. Afterwards, the nanoparticles at different concentrations were added to some wells, and milli-Q water diluted in medium to the control cells. Beside, nanoparticles alone in culture medium were also tested to check their interference with the absorbance. The plates were incubated for 24 hours and the yellow tetrazolium MTT (3-(4, 5-dimethylthiazolyl-2)-2,5-diphenyltetrazolium bromide) was added at a final concentration of 500 μg/mL and incubated for another hour. The MTT is reduced by metabolically active cells to form the purple formazan crystals. After the formation of the crystals, the medium was replaced by 1004 of DMSO to dissolve them and the absorbance was measured at 570 nm. The formula used to calculate the cell viability was the following: […]
smiles,measurement,value
"C[C@@H]1C[C@H]2[C@@H]3CCC4=CC(=O)C=C[C@]4(C)[C@@]3(F)[C@@H](O)C[C@]2(C)[C@@]1(O)C(=O)COP(=O)(O)O [DSP, dexamethasone sodium phosphate]",concentration up to which no toxicity on macrophages,up to 1000 μg/ml
